# The other results are listed elsewhere or left out.
# B1: Latrophilin-3 (Homo sapiens), Q9HAR2 (protein)
# chain: MWPSQLLIFMMLLAPIIHAFSRAPIPMAVVRRELSCESYPIELRCPGTDVIMIESANYGRTDDKICDSDPAQMENIRCYLPDAYKIMSQRCNNRTQCAVVAGPDVFPDPCPGTYKYLEVQYECVPYKVEQKVFLCPGLLKGVYQSEHLFESDHQSGAWCKDPLQASDKIYYMPWTPYRTDTLTEYSSKDDFIAGRPTTTYKLPHRVDGTGFVVYDGALFFNKERTRNIVKFDLRTRIKSGEAIIANANYHDTSPYRWGGKSDIDLAVDENGLWVIYATEQNNGKIVISQLNPYTLRIEGTWDTAYDKRSASNAFMICGILYVVKSVYEDDDNEATGNKIDYIYNTDQSKDSLVDVPFPNSYQYIAAVDYNPRDNLLYVWNNYHVVKYSLDFGPLDSRSGQAHHGQVSYISPPIHLDSELERPSVKDISTTGPLGMGSTTTSTTLRTTTLSPGRSTTPSVSGRRNRSTSTPSPAVEVLDDMTTHLPSASSQIPALEESCEAVEAREIMWFKTRQGQIAKQPCPAGTIGVSTYLCLAPDGIWDPQGPDLSNCSSPWVNHITQKLKSGETAANIARELAEQTRNHLNAGDITYSVRAMDQLVGLLDVQLRNLTPGGKDSAARSLNKAMVETVNNLLQPQALNAWRDLTTSDQLRAATMLLHTVEESAFVLADNLLKTDIVRENTDNIKLEVARLSTEGNLEDLKFPENMGHGSTIQLSANTLKQNGRNGEIRVAFVLYNNLGPYLSTENASMKLGTEALSTNHSVIVNSPVITAAINKEFSNKVYLADPVVFTVKHIKQSEENFNPNCSFWSYSKRTMTGYWSTQGCRLLTTNKTHTTCSCNHLTNFAVLMAHVEVKHSDAVHDLLLDVITWVGILLSLVCLLICIFTFCFFRGLQSDRNTIHKNLCISLFVAELLFLIGINRTDQPIACAVFAALLHFFFLAAFTWMFLEGVQLYIMLVEVFESEHSRRKYFYLVGYGMPALIVAVSAAVDYRSYGTDKVCWLRLDTYFIWSFIGPATLIIMLNVIFLGIALYKMFHHTAILKPESGCLDNIKSWVIGAIALLCLLGLTWAFGLMYINESTVIMAYLFTIFNSLQGMFIFIFHCVLQKKVRKEYGKCLRTHCCSGKSTESSIGSGKTSGSRTPGRYSTGSQSRIRRMWNDTVRKQSESSFITGDINSSASLNREGLLNNARDTSVMDTLPLNGNHGNSYSIASGEYLSNCVQIIDRGYNHNETALEKKILKELTSNYIPSYLNNHERSSEQNRNLMNKLVNNLGSGREDDAIVLDDATSFNHEESLGLELIHEESDAPLLPPRVYSTENHQPHHYTRRRIPQDHSESFFPLLTNEHTEDLQSPHRDSLYTSMPTLAGVAATESVTTSTQTEPPPAKCGDAEDVYYKSMPNLGSRNHVHQLHTYYQLGRGSSDGFIVPPNKDGTPPEGSSKGPAHLVTSL
# Key:
# Assay in all cases: glycan array binding signal (z-score within array); higher = stronger binding
# Settings in all cases: glycan notation: IUPAC condensed, linker removed
# [1] = target: GlcNAc(a1-4)Gal(b1-4)GlcNAc(b1-3)Gal(b1-4)GlcNAc(b1-3)Gal(b1-4)GlcNAc
# Outline: (§1)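 The Consortium for Functional Glycomics database supplied 3228 glycan arrays, of which those lacking an available protein sequence were dropped. The binding signal, a within-array Z-score, was averaged across arrays of the same protein sequence and across linkers. Negative scores can be read as non-binding.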
# [2] = target: GlcNAc(a1-4)Gal(b1-4)GlcNAc(b1-3)Gal(b1-4)[Fuc(a1-3)]GlcNAc(b1-3)Gal(b1-4)[Fuc(a1-3)]GlcNAc
# Outline: as §1
# [3] = target: GlcNAc(a1-6)Gal(b1-4)GlcNAc
# Outline: as §1
# [4] = target: GlcNAc(b1-2)Gal(b1-3)GalNAc
# Outline: as §1
# [5] = target: GlcNAc(b1-2)Man(a1-3)[GlcNAc(b1-2)Man(a1-6)]Man(b1-4)GlcNAc(b1-4)GlcNAc
# Outline: as §1
# [6] = target: GlcNAc(b1-2)Man(a1-3)[GlcNAc(b1-2)Man(a1-6)]Man(b1-4)GlcNAc(b1-4)[Fuc(a1-6)]GlcNAc
# Outline: as §1
# [7] = target: GlcNAc(b1-2)Man(a1-3)[GlcNAc(b1-4)][GlcNAc(b1-2)Man(a1-6)]Man(b1-4)GlcNAc(b1-4)GlcNAc
# Outline: as §1
# [8] = target: GlcNAc(b1-2)[GlcNAc(b1-4)]Man(a1-3)[GlcNAc(b1-2)Man(a1-6)]Man(b1-4)GlcNAc(b1-4)GlcNAc
# Outline: as §1
# [9] = target: GlcNAc(b1-2)[GlcNAc(b1-4)]Man(a1-3)[GlcNAc(b1-4)][GlcNAc(b1-2)Man(a1-6)]Man(b1-4)GlcNAc(b1-4)GlcNAc
# Outline: as §1
# [10] = target: GlcNAc(b1-2)[GlcNAc(b1-4)]Man(a1-3)[GlcNAc(b1-4)][GlcNAc(b1-2)[GlcNAc(b1-6)]Man(a1-6)]Man(b1-4)GlcNAc(b1-4)GlcNAc
# Outline: as §1
# [11] = target: GlcNAc(b1-2)[GlcNAc(b1-4)]Man(a1-3)[GlcNAc(b1-4)][GlcNAc(b1-2)[GlcNAc(b1-6)]Man(a1-6)]Man(b1-4)GlcNAc(b1-4)[Fuc(a1-6)]GlcNAc
# Outline: as §1
# [12] = target: GlcNAc(b1-2)[GlcNAc(b1-6)]Man(a1-6)[GlcNAc(b1-2)Man(a1-3)]Man(b1-4)GlcNAc(b1-4)GlcNAc
# Outline: as §1
# [13] = target: GlcNAc(b1-2)[GlcNAc(b1-6)]Man(a1-6)[GlcNAc(b1-2)Man(a1-3)]Man(b1-4)GlcNAc(b1-4)[Fuc(a1-6)]GlcNAc
# Outline: as §1
# [14] = target: GlcNAc(b1-2)[GlcNAc(b1-6)]Man(a1-6)[GlcNAc(b1-2)Man(a1-3)][GlcNAc(b1-4)]Man(b1-4)GlcNAc(b1-4)GlcNAc
# Outline: as §1
# GlcNAc(b1-3)Gal = target: GlcNAc(b1-3)Gal
# Outline: as §1
# [15] = target: GlcNAc(b1-3)Gal(b1-3)GalNAc
# Outline: as §1
# GlcNAc(b1-3)Gal(b1-4)Glc = target: GlcNAc(b1-3)Gal(b1-4)Glc
# Outline: as §1
# [16] = target: GlcNAc(b1-3)Gal(b1-4)GlcNAc
# Outline: as §1
# [17] = target: GlcNAc(b1-3)Gal(b1-4)GlcNAc(b1-3)Gal(b1-4)GlcNAc
# Outline: as §1
# GlcNAc(b1-3)GalNAc = target: GlcNAc(b1-3)GalNAc
# Outline: as §1
# GlcNAc(b1-3)Man = target: GlcNAc(b1-3)Man
# Outline: as §1
# [18] = target: GlcNAc(b1-3)[GlcNAc(b1-4)][GlcNAc(b1-6)]GlcNAc
# Outline: as §1
# [19] = target: GlcNAc(b1-3)[GlcNAc(b1-6)]Gal(b1-4)GlcNAc
# Outline: as §1
# [20] = target: GlcNAc(b1-3)[GlcNAc(b1-6)]GalNAc
# Outline: as §1
# [21] = target: GlcNAc(b1-4)Gal(b1-4)GlcNAc
# Outline: as §1
# GlcNAc(b1-4)GlcNAc = target: GlcNAc(b1-4)GlcNAc
# Outline: as §1
# [22] = target: GlcNAc(b1-4)GlcNAc(b1-4)GlcNAc
# Outline: as §1
# [23] = target: GlcNAc(b1-4)GlcNAc(b1-4)GlcNAc(b1-4)GlcNAc(b1-4)GlcNAc
# Outline: as §1
# [24] = target: GlcNAc(b1-4)GlcNAc(b1-4)GlcNAc(b1-4)GlcNAc(b1-4)GlcNAc(b1-4)GlcNAc
# Outline: as §1
# [25] = target: GlcNAc(b1-4)[GlcNAc(b1-6)]GalNAc
# Outline: as §1
# [26] = target: GlcNAc(b1-6)Gal(b1-4)GlcNAc
# Outline: as §1
# GlcNAc(b1-6)GalNAc = target: GlcNAc(b1-6)GalNAc
# Outline: as §1
# GlcNAc3Prop(b1-4)GlcNAc = target: GlcNAc3Prop(b1-4)GlcNAc
# Outline: as §1
# [27] = target: GlcNAc6S(b1-3)Gal(b1-4)GlcNAc
# Outline: as §1
# Kdn(a2-3)Gal(b1-3)GalNAc = target: Kdn(a2-3)Gal(b1-3)GalNAc
# Outline: as §1
# Kdn(a2-3)Gal(b1-3)GlcNAc = target: Kdn(a2-3)Gal(b1-3)GlcNAc
# Outline: as §1
# Kdn(a2-3)Gal(b1-4)Glc = target: Kdn(a2-3)Gal(b1-4)Glc
# Outline: as §1
# Kdn(a2-3)Gal(b1-4)GlcNAc = target: Kdn(a2-3)Gal(b1-4)GlcNAc
# Outline: as §1
# [28] = target: Kdn(a2-3)Gal(b1-4)[Fuc(a1-3)]GlcNAc
# Outline: as §1
# Kdn(a2-6)Gal(b1-4)GlcNAc = target: Kdn(a2-6)Gal(b1-4)GlcNAc
# Outline: as §1
# [29] = target: Man(a1-2)Man(a1-2)Man(a1-3)Man
# Outline: as §1
# [30] = target: Man(a1-2)Man(a1-2)Man(a1-6)[Man(a1-3)]Man
# Outline: as §1
# Man(a1-2)Man(a1-3)Man = target: Man(a1-2)Man(a1-3)Man
# Outline: as §1
# [31] = target: Man(a1-2)Man(a1-3)[Man(a1-2)Man(a1-6)]Man
# Outline: as §1
# [32] = target: Man(a1-2)Man(a1-3)[Man(a1-2)Man(a1-6)]Man(a1-6)[Man(a1-2)Man(a1-2)Man(a1-3)]Man
# Outline: as §1
binder,measurement,setting,value
B1,glycan array binding signal (z-score),[1],0.437
same,glycan array binding signal (z-score),[2],2.21
same,glycan array binding signal (z-score),[3],-0.797
same,glycan array binding signal (z-score),[4],1.25
same,glycan array binding signal (z-score),[5],0.561
same,glycan array binding signal (z-score),[6],-1.04
same,glycan array binding signal (z-score),[7],-0.579
same,glycan array binding signal (z-score),[8],0.886
same,glycan array binding signal (z-score),[9],0.562
same,glycan array binding signal (z-score),[10],-0.645
same,glycan array binding signal (z-score),[11],0.388
same,glycan array binding signal (z-score),[12],0.23
same,glycan array binding signal (z-score),[13],2.14
same,glycan array binding signal (z-score),[14],-0.448
same,glycan array binding signal (z-score),GlcNAc(b1-3)Gal,-0.541
same,glycan array binding signal (z-score),[15],1.03
same,glycan array binding signal (z-score),GlcNAc(b1-3)Gal(b1-4)Glc,-0.207
same,glycan array binding signal (z-score),[16],-0.046
same,glycan array binding signal (z-score),[17],-0.273
same,glycan array binding signal (z-score),GlcNAc(b1-3)GalNAc,-0.602
same,glycan array binding signal (z-score),GlcNAc(b1-3)Man,-0.668
same,glycan array binding signal (z-score),[18],-0.458
same,glycan array binding signal (z-score),[19],-0.394
same,glycan array binding signal (z-score),[20],-1.09
same,glycan array binding signal (z-score),[21],-1.24
same,glycan array binding signal (z-score),GlcNAc(b1-4)GlcNAc,-0.41
same,glycan array binding signal (z-score),[22],-0.887
same,glycan array binding signal (z-score),[23],0.111
same,glycan array binding signal (z-score),[24],-0.811
same,glycan array binding signal (z-score),[25],-0.937
same,glycan array binding signal (z-score),[26],-0.645
same,glycan array binding signal (z-score),GlcNAc(b1-6)GalNAc,-1.33
same,glycan array binding signal (z-score),GlcNAc3Prop(b1-4)GlcNAc,0.321
same,glycan array binding signal (z-score),[27],0.203
same,glycan array binding signal (z-score),Kdn(a2-3)Gal(b1-3)GalNAc,0.824
same,glycan array binding signal (z-score),Kdn(a2-3)Gal(b1-3)GlcNAc,-0.098
same,glycan array binding signal (z-score),Kdn(a2-3)Gal(b1-4)Glc,0.542
same,glycan array binding signal (z-score),Kdn(a2-3)Gal(b1-4)GlcNAc,-1.49
same,glycan array binding signal (z-score),[28],-0.695
same,glycan array binding signal (z-score),Kdn(a2-6)Gal(b1-4)GlcNAc,0.36
same,glycan array binding signal (z-score),[29],0.194
same,glycan array binding signal (z-score),[30],0.043
same,glycan array binding signal (z-score),Man(a1-2)Man(a1-3)Man,-0.765
same,glycan array binding signal (z-score),[31],-1.71
same,glycan array binding signal (z-score),[32],0.047

# Retrieved one by one from the entries so far, four records:
binder,measurement,setting,value
B1,glycan array binding signal (z-score),[1],0.437
same,glycan array binding signal (z-score),[31],-1.71
same,glycan array binding signal (z-score),[15],1.03
same,glycan array binding signal (z-score),[2],2.21

# — the supplement of paper PMC8728848
